No constants are given. Whether binding was seen depends on the method and setting. Binding seen in cells or lysates may run through a third protein. Some entries that bind do so weakly or less than the wild type.

Amino acid sequences for entries named in this document (tags omitted).
UniProt P35222: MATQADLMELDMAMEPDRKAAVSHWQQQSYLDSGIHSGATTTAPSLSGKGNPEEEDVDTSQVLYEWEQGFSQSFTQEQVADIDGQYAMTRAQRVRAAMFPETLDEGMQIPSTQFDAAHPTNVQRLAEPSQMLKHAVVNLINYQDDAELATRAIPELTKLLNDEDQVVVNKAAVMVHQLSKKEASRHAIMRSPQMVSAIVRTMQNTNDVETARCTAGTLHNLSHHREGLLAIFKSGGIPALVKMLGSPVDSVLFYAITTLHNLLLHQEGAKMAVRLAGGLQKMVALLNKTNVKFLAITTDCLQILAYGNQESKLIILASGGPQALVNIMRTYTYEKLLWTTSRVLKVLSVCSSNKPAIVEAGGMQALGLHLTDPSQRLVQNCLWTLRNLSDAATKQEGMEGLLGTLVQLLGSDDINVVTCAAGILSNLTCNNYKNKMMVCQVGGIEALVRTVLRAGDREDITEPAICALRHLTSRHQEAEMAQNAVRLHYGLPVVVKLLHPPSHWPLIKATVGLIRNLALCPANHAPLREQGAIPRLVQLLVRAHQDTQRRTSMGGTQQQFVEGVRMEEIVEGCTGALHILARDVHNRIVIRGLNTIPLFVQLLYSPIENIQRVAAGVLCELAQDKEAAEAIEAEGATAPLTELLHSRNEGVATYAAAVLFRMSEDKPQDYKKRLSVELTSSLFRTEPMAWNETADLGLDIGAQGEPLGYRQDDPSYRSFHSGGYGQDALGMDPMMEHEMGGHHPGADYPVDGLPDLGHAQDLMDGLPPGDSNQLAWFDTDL

Results on five molecules are retold here after publication PMC6619347.

In assay [1] the target is T1, DDK‐FBXO16 (human) (UniProt Q8IX29).
T1 sequence: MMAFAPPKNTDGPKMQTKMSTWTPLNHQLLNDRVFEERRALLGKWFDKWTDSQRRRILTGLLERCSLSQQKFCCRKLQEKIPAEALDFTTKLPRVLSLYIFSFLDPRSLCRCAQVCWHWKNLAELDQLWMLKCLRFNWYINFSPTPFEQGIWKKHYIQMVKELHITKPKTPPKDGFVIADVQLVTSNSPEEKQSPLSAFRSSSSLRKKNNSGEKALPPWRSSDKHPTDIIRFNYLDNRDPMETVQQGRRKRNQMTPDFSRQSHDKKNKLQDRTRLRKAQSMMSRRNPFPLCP
Put plainly: co-IP; MCF7 cells coexpressing DDK‐FBXO16 and GFP‐β‐catenin for 40 h, then 5 μM MG132 for 6 h; whole‐cell lysates immunoprecipitated with the indicated antibodies, immunoblot. In general terms: In western blotting, separated proteins are transferred to a membrane and probed.

For assay [2], the target named is T2, FBXO16 (endogenous) (human (endogenous in MCF7)) (UniProt Q8IX29).
T2 sequence: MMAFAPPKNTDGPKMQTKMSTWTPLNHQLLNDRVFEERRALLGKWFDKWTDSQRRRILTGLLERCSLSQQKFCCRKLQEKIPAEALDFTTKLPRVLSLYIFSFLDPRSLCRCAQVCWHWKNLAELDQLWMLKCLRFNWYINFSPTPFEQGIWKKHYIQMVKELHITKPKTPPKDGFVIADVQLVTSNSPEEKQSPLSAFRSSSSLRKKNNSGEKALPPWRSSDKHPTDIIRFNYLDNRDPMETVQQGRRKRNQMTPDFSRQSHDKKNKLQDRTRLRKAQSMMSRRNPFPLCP
Put plainly: co-IP; endogenous proteins; whole‐cell lysates of MCF7 cells pretreated with 5 μM MG132 for 6 h; IgG immunoprecipitates as control; immunoblot.

The target of assay [3] is T3, FBXO16 (in HEK‐293 cells) (human) (UniProt Q8IX29).
T3 sequence: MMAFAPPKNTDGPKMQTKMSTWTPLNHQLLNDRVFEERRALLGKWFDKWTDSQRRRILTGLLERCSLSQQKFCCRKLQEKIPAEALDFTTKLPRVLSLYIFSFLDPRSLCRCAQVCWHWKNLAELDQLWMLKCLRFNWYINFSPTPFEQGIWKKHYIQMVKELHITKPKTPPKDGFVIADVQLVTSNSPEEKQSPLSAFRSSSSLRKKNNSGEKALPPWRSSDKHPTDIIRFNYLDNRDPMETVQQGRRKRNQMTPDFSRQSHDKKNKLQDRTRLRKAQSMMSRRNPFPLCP
Put plainly: co-IP; HEK‐293 cells, without and with the proteasome inhibitor MG132 (Figure S1B).

Assay [4] has as its target GFP‐WT‐β‐catenin (UniProt P35222). Put plainly: co-IP; MCF7 cells coexpressing DDK‐FBXO16 and GFP‐β‐catenin for 40 h, then 5 μM MG132 for 6 h; whole‐cell lysates immunoprecipitated with the indicated antibodies, immunoblot.
The target of assay [5] is β‐catenin (endogenous) (human (endogenous in MCF7)) (UniProt P35222). Put plainly: co-IP; nuclear and cytoplasmic fractions immunoprecipitated with anti‐β‐catenin antibody or IgG; cells grown with 5 μM MG132 for 6 h; immunoblot.
Assay [6] shares this target. Put plainly: co-IP; endogenous proteins; whole‐cell lysates of MCF7 cells pretreated with 5 μM MG132 for 6 h; IgG immunoprecipitates as control; immunoblot.

As for “GFP‐WT‐β‐catenin (from UniProt P35222 1-781)”, the binding entry in assay [1] was “binds”.
Regarding “β‐catenin (endogenous) (from UniProt P35222 1-781)”, the binding entry in assay [2] is given as “binds”.
With “β‐catenin (in HEK‐293 cells) (from UniProt P35222 1-781)”, the binding entry in assay [3] is recorded as “binds”.

B1: DDK‐FBXO16 (protein, UniProt Q8IX29 1-292)
chain: MMAFAPPKNTDGPKMQTKMSTWTPLNHQLLNDRVFEERRALLGKWFDKWTDSQRRRILTGLLERCSLSQQKFCCRKLQEKIPAEALDFTTKLPRVLSLYIFSFLDPRSLCRCAQVCWHWKNLAELDQLWMLKCLRFNWYINFSPTPFEQGIWKKHYIQMVKELHITKPKTPPKDGFVIADVQLVTSNSPEEKQSPLSAFRSSSSLRKKNNSGEKALPPWRSSDKHPTDIIRFNYLDNRDPMETVQQGRRKRNQMTPDFSRQSHDKKNKLQDRTRLRKAQSMMSRRNPFPLCP
For B1, the binding result in assay [4] was “binds”.

B2: FBXO16 (endogenous) (protein, UniProt Q8IX29 1-292)
chain: MMAFAPPKNTDGPKMQTKMSTWTPLNHQLLNDRVFEERRALLGKWFDKWTDSQRRRILTGLLERCSLSQQKFCCRKLQEKIPAEALDFTTKLPRVLSLYIFSFLDPRSLCRCAQVCWHWKNLAELDQLWMLKCLRFNWYINFSPTPFEQGIWKKHYIQMVKELHITKPKTPPKDGFVIADVQLVTSNSPEEKQSPLSAFRSSSSLRKKNNSGEKALPPWRSSDKHPTDIIRFNYLDNRDPMETVQQGRRKRNQMTPDFSRQSHDKKNKLQDRTRLRKAQSMMSRRNPFPLCP
For B2, the binding result in assay [5] and in assay [6] was “binds” in each case.
